No constants are given. Whether binding was seen depends on the method and setting. Binding seen in cells or lysates may run through a third protein. A yes stands for co-enrichment or nearness to the bait. Other partners may have been found.
Biological target: T1, Carnitine palmitoyltransferase 1A (CPT1A) (human (endogenous in LX2)) (UniProt P50416)
T1 sequence: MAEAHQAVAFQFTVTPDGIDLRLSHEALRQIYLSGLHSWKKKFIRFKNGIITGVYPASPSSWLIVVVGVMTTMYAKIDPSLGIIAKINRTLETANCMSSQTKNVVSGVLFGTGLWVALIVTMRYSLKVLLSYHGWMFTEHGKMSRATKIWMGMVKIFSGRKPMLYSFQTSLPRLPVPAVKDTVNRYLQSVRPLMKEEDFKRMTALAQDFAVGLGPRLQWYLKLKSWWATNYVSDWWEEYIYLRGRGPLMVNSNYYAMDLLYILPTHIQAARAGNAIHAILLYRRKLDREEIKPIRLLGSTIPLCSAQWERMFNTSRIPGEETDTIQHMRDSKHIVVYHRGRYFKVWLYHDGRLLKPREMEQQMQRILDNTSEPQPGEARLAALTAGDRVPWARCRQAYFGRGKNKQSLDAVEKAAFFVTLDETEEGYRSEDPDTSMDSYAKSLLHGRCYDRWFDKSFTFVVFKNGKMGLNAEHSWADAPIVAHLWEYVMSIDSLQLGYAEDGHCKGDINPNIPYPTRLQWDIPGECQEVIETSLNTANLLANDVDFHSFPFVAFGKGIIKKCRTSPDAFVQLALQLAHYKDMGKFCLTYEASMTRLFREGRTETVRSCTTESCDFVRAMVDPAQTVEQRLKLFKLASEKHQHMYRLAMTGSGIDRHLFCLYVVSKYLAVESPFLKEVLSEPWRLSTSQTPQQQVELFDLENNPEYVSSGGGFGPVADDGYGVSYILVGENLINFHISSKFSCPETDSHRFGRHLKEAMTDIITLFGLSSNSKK
Assay: affinity purification with mass spectrometry; Co-IP-MS of CPT1A from LX2 cells treated with DATs (10 µM); control IgG or target antibody, Protein G beads, gel bands digested with trypsin, LC-MS/MS

Chains of the proteins cited; added tags and fusions are not shown.
UniProt Q9NP72: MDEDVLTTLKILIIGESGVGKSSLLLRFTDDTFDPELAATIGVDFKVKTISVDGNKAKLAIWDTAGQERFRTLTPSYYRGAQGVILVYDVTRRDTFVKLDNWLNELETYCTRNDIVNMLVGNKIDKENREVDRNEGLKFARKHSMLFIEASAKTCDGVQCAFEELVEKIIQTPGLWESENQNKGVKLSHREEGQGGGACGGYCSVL

binding: binds
Substance: Ras‐related protein Rab‐18 (RAB18) (from UniProt Q9NP72 1-206)

From PMC12140386, “Diallyl Trisulfide From Garlic Regulates RAB18 Phase Separation to Inhibit Lipophagy and Induce Cuproptosis in Hepatic Stellate Cells for Antifibrotic Effects” (Advanced Science, 2025)
